Reference: publication PMC10011449
These are yes or no findings as the source states them, for the method shown. Binding seen in cells or lysates may run through a third protein. A result given as binding can be weak or reduced; the word gives no strength.

Amino acid sequences for entries named in this document (tags omitted). A change or cut given only in a name is not applied to a line headed by its entry.
UniProt P19634: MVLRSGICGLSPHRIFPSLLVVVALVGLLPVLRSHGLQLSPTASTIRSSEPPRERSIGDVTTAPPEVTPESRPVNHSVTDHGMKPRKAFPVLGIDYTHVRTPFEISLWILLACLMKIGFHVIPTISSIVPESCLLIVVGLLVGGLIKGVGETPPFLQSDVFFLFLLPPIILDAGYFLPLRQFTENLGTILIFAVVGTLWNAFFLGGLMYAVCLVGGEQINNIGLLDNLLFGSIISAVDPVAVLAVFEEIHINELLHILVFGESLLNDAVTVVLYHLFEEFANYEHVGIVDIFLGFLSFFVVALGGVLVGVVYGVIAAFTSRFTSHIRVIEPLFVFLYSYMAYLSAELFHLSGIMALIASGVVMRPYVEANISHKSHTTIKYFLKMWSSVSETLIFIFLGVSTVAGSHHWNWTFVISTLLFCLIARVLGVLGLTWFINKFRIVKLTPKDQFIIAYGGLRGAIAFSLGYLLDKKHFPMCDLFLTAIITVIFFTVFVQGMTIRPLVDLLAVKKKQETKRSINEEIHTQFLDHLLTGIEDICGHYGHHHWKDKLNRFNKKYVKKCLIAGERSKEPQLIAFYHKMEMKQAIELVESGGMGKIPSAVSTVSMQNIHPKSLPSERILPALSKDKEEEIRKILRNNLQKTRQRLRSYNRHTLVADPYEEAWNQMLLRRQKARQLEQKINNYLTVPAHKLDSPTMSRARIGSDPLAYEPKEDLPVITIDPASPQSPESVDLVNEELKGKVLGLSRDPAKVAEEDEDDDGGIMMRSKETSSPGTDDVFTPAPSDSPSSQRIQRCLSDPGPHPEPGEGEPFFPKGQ
UniProt P31977: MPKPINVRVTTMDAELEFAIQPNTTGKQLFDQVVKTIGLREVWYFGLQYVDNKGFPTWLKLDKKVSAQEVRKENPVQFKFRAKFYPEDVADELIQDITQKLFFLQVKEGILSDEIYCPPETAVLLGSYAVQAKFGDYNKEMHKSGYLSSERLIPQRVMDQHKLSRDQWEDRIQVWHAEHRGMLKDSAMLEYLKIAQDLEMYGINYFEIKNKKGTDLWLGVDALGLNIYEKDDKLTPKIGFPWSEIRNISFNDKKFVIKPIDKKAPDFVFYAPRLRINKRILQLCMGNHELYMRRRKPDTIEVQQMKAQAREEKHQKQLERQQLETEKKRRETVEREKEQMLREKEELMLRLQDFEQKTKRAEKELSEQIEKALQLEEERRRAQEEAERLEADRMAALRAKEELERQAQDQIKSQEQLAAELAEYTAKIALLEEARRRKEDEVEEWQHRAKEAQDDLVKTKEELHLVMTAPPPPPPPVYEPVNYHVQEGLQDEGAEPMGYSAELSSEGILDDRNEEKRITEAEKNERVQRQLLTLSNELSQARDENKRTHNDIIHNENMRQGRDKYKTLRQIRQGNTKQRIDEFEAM

Target: HA-tagged human NHE1 with mutated ezrin binding site (AdMut) (human) (UniProt P19634)
Assay: co-IP; anti-HA immunoprecipitation (HA-tagged NHE1 as bait) from lysates of rat PASMCs infected with AdNHE1 or AdMut; blots for p-ezrin and SMA; IgG as control

binding: binds weakly
Substance: phosphorylated ezrin (p-ezrin) (from UniProt P31977 1-586)
